# Test results as given in article PMC10117376.
# Results are given in words; binding and its absence hold for the method and conditions named. In cells and extracts the contact can be indirect. Here binding means that the protein was enriched with, or labelled near, the bait; the list need not be complete. For some assays here: No binding means not detected with the bait. For some assays here: Sequences can lack the tags named with a protein.
# T1: 2×FLAG/V5-TBR1 (human), Q16650
# T1 chain: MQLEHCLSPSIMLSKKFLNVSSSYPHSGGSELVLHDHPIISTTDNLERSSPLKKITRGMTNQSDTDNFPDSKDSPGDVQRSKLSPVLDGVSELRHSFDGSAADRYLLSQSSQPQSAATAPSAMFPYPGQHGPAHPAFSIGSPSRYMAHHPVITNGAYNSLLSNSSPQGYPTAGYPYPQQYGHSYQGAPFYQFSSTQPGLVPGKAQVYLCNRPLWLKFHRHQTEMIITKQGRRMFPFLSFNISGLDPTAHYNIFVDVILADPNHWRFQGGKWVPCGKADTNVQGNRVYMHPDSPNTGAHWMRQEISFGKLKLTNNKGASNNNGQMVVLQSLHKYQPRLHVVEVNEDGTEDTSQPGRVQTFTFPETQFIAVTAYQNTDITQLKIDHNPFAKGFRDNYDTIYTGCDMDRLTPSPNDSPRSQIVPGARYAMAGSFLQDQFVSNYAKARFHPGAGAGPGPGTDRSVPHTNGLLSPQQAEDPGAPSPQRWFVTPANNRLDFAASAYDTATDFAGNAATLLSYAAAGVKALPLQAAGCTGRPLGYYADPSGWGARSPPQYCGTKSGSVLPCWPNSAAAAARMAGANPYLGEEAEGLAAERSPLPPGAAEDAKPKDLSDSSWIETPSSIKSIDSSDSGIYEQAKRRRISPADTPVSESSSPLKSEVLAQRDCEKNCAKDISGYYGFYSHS
# Columns and labels:
# [1] = biological target: T1, 2×FLAG/V5-TBR1 (human), Q16650; test: affinity purification with mass spectrometry; nuclear extract of HEK293 cells stably expressing 2xFLAG/V5-TBR1 on anti-FLAG M2 agarose beads, 3 h at 4°C, buffer C-100 (20 mM HEPES pH 7.6, 20% glycerol, 100 mM KCl, 1.5 mM MgCl2, 0.2 mM EDTA) with benzonase and ethidium bromide; eluted with FLAG-tripeptide; two independent purifications (AP1, AP2); untransfected cells as control; details: remark: other sources report otherwise
# 2×FLAG/V5-TBR1 (human) = 2×FLAG/V5-TBR1 (human) (UniProt Q16650); test: as above
Binder,binding [1],binding (2×FLAG/V5-TBR1 (human))
"FOXP1, Q9H334 1-677 (protein) MMQESGTETKSNGSAIQNGSGGSNHLLECGGLREGRSNGETPAVDIGAADLAHAQQQQQQALQVARQLLLQQQQQQQVSGLKSPKRNDKQPALQVPVSVAMMTPQVITPQQMQQILQQQVLSPQQLQVLLQQQQALMLQQQQLQEFYKKQQEQLQLQLLQQQHAGKQPKEQQQVATQQLAFQQQLLQMQQLQQQHLLSLQRQGLLTIQPGQPALPLQPLAQGMIPTELQQLWKEVTSAHTAEETTGNNHSSLDLTTTCVSSSAPSKTSLIMNPHASTNGQLSVHTPKRESLSHEEHPHSHPLYGHGVCKWPGCEAVCEDFQSFLKHLNSEHALDDRSTAQCRVQMQVVQQLELQLAKDKERLQAMMTHLHVKSTEPKAAPQPLNLVSSVTLSKSASEASPQSLPHTPTTPTAPLTPVTQGPSVITTTSMHTVGPIRRRYSDKYNVPISSADIAQNQEFYKNAEVRPPFTYASLIRQAILESPEKQLTLNEIYNWFTRMFAYFRRNAATWKNAVRHNLSLHKCFVRVENVKGAVWTVDEVEFQKRRPQKISGNPSLIKNMQSSHAYCTPLNAALQASMAENSIPLYTTASMGNPTLGNLASAIREELNGAMEHTNSNESDSSPGRSPMQAVHPVHVKEEPLDPEEAEGPLSLVTTANHSPDFDHDRDYEDEPVNEDME",no binding,
"FOXP2, O15409 1-715 (protein) MMQESATETISNSSMNQNGMSTLSSQLDAGSRDGRSSGDTSSEVSTVELLHLQQQQALQAARQLLLQQQTSGLKSPKSSDKQRPLQVPVSVAMMTPQVITPQQMQQILQQQVLSPQQLQALLQQQQAVMLQQQQLQEFYKKQQEQLHLQLLQQQQQQQQQQQQQQQQQQQQQQQQQQQQQQQQQQQQQQQQHPGKQAKEQQQQQQQQQQLAAQQLVFQQQLLQMQQLQQQQHLLSLQRQGLISIPPGQAALPVQSLPQAGLSPAEIQQLWKEVTGVHSMEDNGIKHGGLDLTTNNSSSTTSSNTSKASPPITHHSIVNGQSSVLSARRDSSSHEETGASHTLYGHGVCKWPGCESICEDFGQFLKHLNNEHALDDRSTAQCRVQMQVVQQLEIQLSKERERLQAMMTHLHMRPSEPKPSPKPLNLVSSVTMSKNMLETSPQSLPQTPTTPTAPVTPITQGPSVITPASVPNVGAIRRRHSDKYNIPMSSEIAPNYEFYKNADVRPPFTYATLIRQAIMESSDRQLTLNEIYSWFTRTFAYFRRNAATWKNAVRHNLSLHKCFVRVENVKGAVWTVDEVEYQKRRSQKITGSPTLVKNIPTSLGYGAALNASLQAALAESSLPLLSNPGLINNASSGLLQAVHEDLNGSLDHIDSNGNSSPGCSPQPHIHSIHVKEEPVIAEDEDCPMSLVTTANHSPELEDDREIEEEPLSEDLE",no binding,
"CASK, O14936 1-926 (protein) MADDDVLFEDVYELCEVIGKGPFSVVRRCINRETGQQFAVKIVDVAKFTSSPGLSTEDLKREASICHMLKHPHIVELLETYSSDGMLYMVFEFMDGADLCFEIVKRADAGFVYSEAVASHYMRQILEALRYCHDNNIIHRDVKPHCVLLASKENSAPVKLGGFGVAIQLGESGLVAGGRVGTPHFMAPEVVKREPYGKPVDVWGCGVILFILLSGCLPFYGTKERLFEGIIKGKYKMNPRQWSHISESAKDLVRRMLMLDPAERITVYEALNHPWLKERDRYAYKIHLPETVEQLRKFNARRKLKGAVLAAVSSHKFNSFYGDPPEELPDFSEDPTSSGLLAAERAVSQVLDSLEEIHALTDCSEKDLDFLHSVFQDQHLHTLLDLYDKINTKSSPQIRNPPSDAVQRAKEVLEEISCYPENNDAKELKRILTQPHFMALLQTHDVVAHEVYSDEALRVTPPPTSPYLNGDSPESANGDMDMENVTRVRLVQFQKNTDEPMGITLKMNELNHCIVARIMHGGMIHRQGTLHVGDEIREINGISVANQTVEQLQKMLREMRGSITFKIVPSYRTQSSSCERDSPSTSRQSPANGHSSTNNSVSDLPSTTQPKGRQIYVRAQFEYDPAKDDLIPCKEAGIRFRVGDIIQIISKDDHNWWQGKLENSKNGTAGLIPSPELQEWRVACIAMEKTKQEQQASCTWFGKKKKQYKDKYLAKHNAVFDQLDLVTYEEVVKLPAFKRKTLVLLGAHGVGRRHIKNTLITKHPDRFAYPIPHTTRPPKKDEENGKNYYFVSHDQMMQDISNNEYLEYGSHEDAMYGTKLETIRKIHEQGLIAILDVEPQALKVLRTAEFAPFVVFIAAPTITPGLNEDESLQRLQKESDILQRTYAHYFDLTIINNEIDETIRHLEEAVELVCTAPQWVPVSWVY",binds,

# The remaining lines, values ahead:
binding [1],binding (2×FLAG/V5-TBR1 (human)),Binder
no binding,,"FOXP4, Q8IVH2 1-680 (protein) MMVESASETIRSAPSGQNGVGSLSGQADGSSGGATGTTASGTGREVTTGADSNGEMSPAELLHFQQQQALQVARQFLLQQASGLSSPGNNDSKQSASAVQVPVSVAMMSPQMLTPQQMQQILSPPQLQALLQQQQALMLQQLQEYYKKQQEQLHLQLLTQQQAGKPQPKEALGNKQLAFQQQLLQMQQLQQQHLLNLQRQGLVSLQPNQASGPLQTLPQAAVCPTDLPQLWKGEGAPGQPAEDSVKQEGLDLTGTAATATSFAAPPKVSPPLSHHTLPNGQPTVLTSRRDSSSHEETPGSHPLYGHGECKWPGCETLCEDLGQFIKHLNTEHALDDRSTAQCRVQMQVVQQLEIQLAKESERLQAMMAHLHMRPSEPKPFSQPLNPVPGSSSFSKVTVSAADSFPDGLVHPPTSAAAPVTPLRPPGLGSASLHGGGPARRRSSDKFCSPISSELAQNHEFYKNADVRPPFTYASLIRQAILETPDRQLTLNEIYNWFTRMFAYFRRNTATWKNAVRHNLSLHKCFVRVENVKGAVWTVDEREYQKRRPPKMTGSPTLVKNMISGLSYGALNASYQAALAESSFPLLNSPGMLNPGSASSLLPLSHDDVGAPVEPLPSNGSSSPPRLSPPQYSHQVQVKEEPAEAEEDRQPGPPLGAPNPSASGPPEDRDLEEELPGEELS"
,binds,"ZMYM2 (endogenous) (protein, UniProt Q9UBW7 1-1377) MDTSSVGGLELTDQTPVLLGSTAMATSLTNVGNSFSGPANPLVSRSNKFQNSSVEDDDDVVFIEPVQPPPPSVPVVADQRTITFTSSKNEELQGNDSKITPSSKELASQKGSVSETIVIDDEEDMETNQGQEKNSSNFIERRPPETKNRTNDVDFSTSSFSRSKVNAGMGNSGITTEPDSEIQIANVTTLETGVSSVNDGQLENTDGRDMNLMITHVTSLQNTNLGDVSNGLQSSNFGVNIQTYTPSLTSQTKTGVGPFNPGRMNVAGDVFQNGESATHHNPDSWISQSASFPRNQKQPGVDSLSPVASLPKQIFQPSVQQQPTKPVKVTCANCKKPLQKGQTAYQRKGSAHLFCSTTCLSSFSHKPAPKKLCVMCKKDITTMKGTIVAQVDSSESFQEFCSTSCLSLYEDKQNPTKGALNKSRCTICGKLTEIRHEVSFKNMTHKLCSDHCFNRYRMANGLIMNCCEQCGEYLPSKGAGNNVLVIDGQQKRFCCQSCVSEYKQVGSHPSFLKEVRDHMQDSFLMQPEKYGKLTTCTGCRTQCRFFDMTQCIGPNGYMEPYCSTACMNSHKTKYAKSQSLGIICHFCKRNSLPQYQATMPDGKLYNFCNSSCVAKFQALSMQSSPNGQFVAPSDIQLKCNYCKNSFCSKPEILEWENKVHQFCSKTCSDDYKKLHCIVTYCEYCQEEKTLHETVNFSGVKRPFCSEGCKLLYKQDFARRLGLRCVTCNYCSQLCKKGATKELDGVVRDFCSEDCCKKFQDWYYKAARCDCCKSQGTLKERVQWRGEMKHFCDQHCLLRFYCQQNEPNMTTQKGPENLHYDQGCQTSRTKMTGSAPPPSPTPNKEMKNKAVLCKPLTMTKATYCKPHMQTKSCQTDDTWRTEYVPVPIPVPVYIPVPMHMYSQNIPVPTTVPVPVPVPVFLPAPLDSSEKIPAAIEELKSKVSSDALDTELLTMTDMMSEDEGKTETTNINSVIIETDIIGSDLLKNSDPETQSSMPDVPYEPDLDIEIDFPRAAEELDMENEFLLPPVFGEEYEEQPRPRSKKKGAKRKAVSGYQSHDDSSDNSECSFPFKYTYGVNAWKHWVKTRQLDEDLLVLDELKSSKSVKLKEDLLSHTTAELNYGLAHFVNEIRRPNGENYAPDSIYYLCLGIQEYLCGSNRKDNIFIDPGYQTFEQELNKILRSWQPSILPDGSIFSRVEEDYLWRIKQLGSHSPVALLNTLFYFNTKYFGLKTVEQHLRLSFGTVFRHWKKNPLTMENKACLRYQVSSLCGTDNEDKITTGKRKHEDDEPVFEQIENTANPSRCPVKMFECYLSKSPQNLNQRMDVFYLQPECSSSTDSPVWYTSTSLDRNTLENMLVRVLLVKDIYDKDNYELDEDTD"
